Measured values: patent US20030166016A1, “Assay methods for cyclin dependent kinases” (priority 2000, published 2003)
Entries after “also recorded” stand apart in the source; their conditions may differ. At least one compound was matched to its structure with a doubt left.

Chains of the proteins cited; added tags and fusions are not shown. Residues count along the entry.
UniProt P11802, 2-303 limits assumed: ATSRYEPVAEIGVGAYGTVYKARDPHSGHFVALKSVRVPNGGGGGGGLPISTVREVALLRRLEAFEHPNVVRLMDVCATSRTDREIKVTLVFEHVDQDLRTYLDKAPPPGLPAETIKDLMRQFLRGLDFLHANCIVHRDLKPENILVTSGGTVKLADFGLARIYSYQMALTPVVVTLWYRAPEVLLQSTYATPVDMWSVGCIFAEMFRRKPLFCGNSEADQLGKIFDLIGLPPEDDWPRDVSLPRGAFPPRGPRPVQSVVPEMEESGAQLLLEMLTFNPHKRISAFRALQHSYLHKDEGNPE

Biological target: T1, CDK4 (Homo sapiens, UniProt P11802)
T1 construct: Breast carcinoma cells, T47D (HTB-133, ATCC, Manassas, Va., Depositor: I. Keydar), were cultured in 100 mm plates; endogenous in cells; host or cells: T47D breast carcinoma cells (ATCC HTB-133)
Assay: ELISA-based assay for intracellular CDK4 activity (Rb phosphorylated at Ser 780)
Assay type: cell-based
Conditions: T47D cells, not synchronized, 10% FBS; 25 μM, 50 μM, or 100 μM olomoucine for 20-24 hours; FIG. 1

## Cn1cnc2c(NCc3ccccc3)nc(NCCO)nc21 [olomoucine]
  intracellular CDK4 activity (amount of CDK-phosphorylated Rb, luminescent signal): dose-dependent inhibition; also recorded: decreased in a dose-dependent manner
